These are yes or no findings as the source states them, for the method shown. Where a sequence is shown, tags or fusion partners need not be part of it.
Target: T1, Upf1-HD-His6 (S. cerevisiae Upf1 helicase domain, residues 221 to 851) (S. cerevisiae) (UniProt P30771)
T1 sequence: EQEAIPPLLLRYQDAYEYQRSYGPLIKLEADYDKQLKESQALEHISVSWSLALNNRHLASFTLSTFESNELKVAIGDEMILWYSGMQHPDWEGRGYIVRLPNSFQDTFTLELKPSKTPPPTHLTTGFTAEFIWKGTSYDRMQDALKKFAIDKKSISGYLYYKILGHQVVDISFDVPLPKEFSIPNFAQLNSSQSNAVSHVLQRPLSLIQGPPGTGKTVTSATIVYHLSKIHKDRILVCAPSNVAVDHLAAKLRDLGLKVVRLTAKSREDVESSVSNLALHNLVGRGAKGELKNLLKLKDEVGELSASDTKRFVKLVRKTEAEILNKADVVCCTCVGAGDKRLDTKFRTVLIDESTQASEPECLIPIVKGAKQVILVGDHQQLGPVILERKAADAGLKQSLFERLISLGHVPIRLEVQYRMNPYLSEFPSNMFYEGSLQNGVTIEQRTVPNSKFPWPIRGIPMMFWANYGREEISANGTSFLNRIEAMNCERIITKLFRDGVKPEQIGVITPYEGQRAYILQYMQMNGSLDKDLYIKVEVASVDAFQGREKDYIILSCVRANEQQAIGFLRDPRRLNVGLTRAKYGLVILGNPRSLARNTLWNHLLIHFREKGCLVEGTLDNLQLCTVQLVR
Assay: condition: 330 μM Nmd4 PIN injected into 30 to 35 μM Upf1-HD-His6; ITC; His6-ZZ-Nmd4 proteins (260 μM full-length and « arm », 330 μM PIN) or His6-ZZ (277 μM) injected into Upf1-HD-His6 (30 to 35 μM); 20°C; 100 mM Bis-Tris pH 6.5, 200 mM NaCl, 5 mM MgCl2, 5 mM 2-mercaptoethanol; one-binding-site model; both purified

binding: no binding
B1: His6-ZZ-Nmd4 PIN domain (residues 1 to 167) (domain or fragment, UniProt Q12129 1-167)
chain: MTQYNFIIDASAFEKGLGNIKRWCSDCTEAVTLNFYIPTFTLNELDFLQQRRKSFAARESLKFIDRLDDSKFANLKVFIEFPEVLDIILWSDVMEHNDSSGKINIAKLPKRLKNLLKSCIYKCYLEGNEGLHWFLISEDPQIREMAMQCNIPSCSIVDVDSILSKDM

From PMC11463774, “Structure of the Nmd4-Upf1 complex supports conservation of the nonsense-mediated mRNA decay pathway between yeast and humans” (PLOS Biology, 2024)
